Source: paper PMC9814157
Results are given in words; binding and its absence hold for the method and conditions named. Binding seen in cells or lysates may run through a third protein.

Molecular target: adaptor protein Grb2 (mouse (endogenous in splenic B cells)), Q60631
Test: co-IP; lysates of β1^WT and β1^KO transitional B cells incubated with beads cross-linked with α-Grb2 or control α-Ig antibodies; immunoblot for Grb2 and FAK; primary cells without activation of integrins
Settings: remark: other sources report otherwise

binding: no binding
B1: focal adhesion kinase (FAK), P34152 1-1052 (protein)
chain: MAAAYLDPNLNHTPSSSTKTHLGTGMERSPGAMERVLKVFHYFESSSEPTTWASIIRHGDATDVRGIIQKIVDSHKVKHVACYGFRLSHLRSEEVHWLHVDMGVSSVREKYELAHPPEEWKYELRIRYLPKGFLNQFTEDKPTLNFFYQQVKSDYMQEIADQVDQEIALKLGCLEIRRSYWEMRGNALEKKSNYEVLEKDVGLKRFFPKSLLDSVKAKTLRKLIQQTFRQFANLNREESILKFFEILSPVYRFDKECFKCALGSSWIISVELAIGPEEGISYLTDKGCNPTHLADFNQVQTIQYSNSEDKDRKGMLQLKIAGAPEPLTVTAPSLTIAENMADLIDGYCRLVNGATQSFIIRPQKEGERALPSIPKLANSEKQGMRTHAVSVSETDDYAEIIDEEDTYTMPSTRDYEIQRERIELGRCIGEGQFGDVHQGVYLSPENPALAVAIKTCKNCTSDSVREKFLQEALTMRQFDHPHIVKLIGVITENPVWIIMELCTLGELRSFLQVRKYSLDLASLILYAYQLSTALAYLESKRFVHRDIAARNVLVSSNDCVKLGDFGLSRYMEDSTYYKASKGKLPIKWMAPESINFRRFTSASDVWMFGVCMWEILMHGVKPFQGVKNNDVIGRIENGERLPMPPNCPPTLYSLMTKCWAYDPSRRPRFTELKAQLSTILEEEKVQQEERMRMESRRQATVSWDSGGSDEAPPKPSRPGYPSPRSSEGFYPSPQHMVQTNHYQVSGYPGSHGIPAMAGSIYQGQASLLDQTELWNHRPQEMSMWQPSVEDSAALDLRGMGQVLPPHLMEERLIRQQQEMEEDQRWLEKEERFLKPDVRLSRGSIDREDGSFQGPTGNQHIYQPVGKPDPAAPPKKPPRPGAPGHLSNLSSISSPADSYNEGVKLQPQEISPPPTANLDRSNDKVYENVTGLVKAVIEMSSKIQPAPPEEYVPMVKEVGLALRTLLATVDETIPALPASTHREIEMAQKLLNSDLGELISKMKLAQQYVMTSLQQEYKKQMLTAAHALAVDAKNLLDVIDQARLKMLGQTRPH
